Test results published in the supplement of paper PMC12823440, “Inhibitors supercharge kinase turnover through native proteolytic circuits” (Nature, 2025).
Counter-ions that a name gives are not always drawn. The list shows a part of the results. Hit calls seldom repeat between salt and free forms of one compound.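 Kinases were expressed as nanoluciferase fusions in K562 cells and luminescence was read every 4 h between 2 and 18 h as percent of control, DMSO set to 100% and a positive control to 0%. A time point counts as decreased when the signal drops significantly (2 sigma). The hit call is the authors' own, does not follow from the count of time points alone, and its rule is not shown.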

Sequences of proteins named here, by UniProt entry; tags and fusion partners are left off. A change or cut given only in a name is not applied to a line headed by its entry.
UniProt Q9BRS2: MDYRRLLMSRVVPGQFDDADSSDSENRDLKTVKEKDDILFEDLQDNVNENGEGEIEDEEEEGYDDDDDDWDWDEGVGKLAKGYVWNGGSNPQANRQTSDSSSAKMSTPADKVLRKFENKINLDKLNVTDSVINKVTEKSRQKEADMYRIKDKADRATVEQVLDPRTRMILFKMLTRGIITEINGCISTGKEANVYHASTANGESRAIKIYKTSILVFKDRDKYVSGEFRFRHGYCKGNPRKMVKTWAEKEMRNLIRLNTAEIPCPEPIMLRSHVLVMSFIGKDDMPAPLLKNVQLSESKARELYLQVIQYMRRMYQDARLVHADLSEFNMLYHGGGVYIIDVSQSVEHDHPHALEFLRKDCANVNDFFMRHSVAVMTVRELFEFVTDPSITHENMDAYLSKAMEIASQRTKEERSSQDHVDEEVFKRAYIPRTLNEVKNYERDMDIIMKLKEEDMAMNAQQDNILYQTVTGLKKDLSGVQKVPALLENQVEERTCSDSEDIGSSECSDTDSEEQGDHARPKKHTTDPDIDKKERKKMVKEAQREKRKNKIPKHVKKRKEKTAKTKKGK
UniProt Q13546: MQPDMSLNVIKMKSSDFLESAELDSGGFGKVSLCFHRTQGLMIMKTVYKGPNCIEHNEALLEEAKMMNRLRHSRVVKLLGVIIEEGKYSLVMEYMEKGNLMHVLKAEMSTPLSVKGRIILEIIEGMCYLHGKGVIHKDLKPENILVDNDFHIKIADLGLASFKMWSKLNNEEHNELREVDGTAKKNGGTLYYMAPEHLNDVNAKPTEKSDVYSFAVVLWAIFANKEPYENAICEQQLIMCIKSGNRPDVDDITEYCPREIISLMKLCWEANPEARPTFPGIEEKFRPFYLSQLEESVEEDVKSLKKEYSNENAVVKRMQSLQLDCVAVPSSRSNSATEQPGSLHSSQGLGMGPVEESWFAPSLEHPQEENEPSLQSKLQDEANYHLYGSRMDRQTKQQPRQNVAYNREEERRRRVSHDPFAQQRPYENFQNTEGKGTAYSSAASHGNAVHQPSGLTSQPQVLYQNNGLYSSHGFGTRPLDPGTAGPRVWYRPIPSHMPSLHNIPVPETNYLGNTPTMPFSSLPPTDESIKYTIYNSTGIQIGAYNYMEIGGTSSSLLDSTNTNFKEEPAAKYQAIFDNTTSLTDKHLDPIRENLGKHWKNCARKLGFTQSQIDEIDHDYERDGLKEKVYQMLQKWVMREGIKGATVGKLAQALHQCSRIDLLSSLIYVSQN
UniProt Q15418, whole entry: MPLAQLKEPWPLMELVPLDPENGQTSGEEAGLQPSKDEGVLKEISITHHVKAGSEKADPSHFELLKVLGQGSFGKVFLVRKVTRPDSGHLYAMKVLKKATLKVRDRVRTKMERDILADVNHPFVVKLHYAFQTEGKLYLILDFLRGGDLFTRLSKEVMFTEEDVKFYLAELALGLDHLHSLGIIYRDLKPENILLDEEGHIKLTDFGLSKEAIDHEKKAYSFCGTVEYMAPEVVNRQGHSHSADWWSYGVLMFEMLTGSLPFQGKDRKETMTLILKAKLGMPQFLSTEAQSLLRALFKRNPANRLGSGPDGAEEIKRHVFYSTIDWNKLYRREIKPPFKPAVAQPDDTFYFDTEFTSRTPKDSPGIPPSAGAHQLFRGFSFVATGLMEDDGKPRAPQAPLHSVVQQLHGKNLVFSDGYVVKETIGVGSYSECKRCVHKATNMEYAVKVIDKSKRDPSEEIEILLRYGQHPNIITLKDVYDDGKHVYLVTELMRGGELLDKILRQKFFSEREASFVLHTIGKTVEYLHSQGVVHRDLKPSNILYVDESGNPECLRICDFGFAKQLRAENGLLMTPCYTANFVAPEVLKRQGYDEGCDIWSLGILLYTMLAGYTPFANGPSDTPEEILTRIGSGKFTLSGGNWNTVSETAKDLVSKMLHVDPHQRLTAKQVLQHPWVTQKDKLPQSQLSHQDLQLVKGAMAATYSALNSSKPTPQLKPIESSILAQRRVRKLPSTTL
UniProt Q9Y6E0: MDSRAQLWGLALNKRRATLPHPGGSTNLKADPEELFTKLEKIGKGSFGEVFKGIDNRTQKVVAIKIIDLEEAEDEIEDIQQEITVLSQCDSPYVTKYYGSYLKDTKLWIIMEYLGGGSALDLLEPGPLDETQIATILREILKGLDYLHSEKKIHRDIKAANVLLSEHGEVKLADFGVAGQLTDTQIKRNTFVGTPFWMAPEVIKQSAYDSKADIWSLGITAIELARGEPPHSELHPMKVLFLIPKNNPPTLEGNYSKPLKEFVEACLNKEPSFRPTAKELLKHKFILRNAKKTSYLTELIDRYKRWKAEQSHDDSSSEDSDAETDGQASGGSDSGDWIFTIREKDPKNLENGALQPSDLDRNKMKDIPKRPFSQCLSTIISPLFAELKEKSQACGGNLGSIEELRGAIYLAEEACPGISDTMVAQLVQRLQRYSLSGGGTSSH
UniProt P42680: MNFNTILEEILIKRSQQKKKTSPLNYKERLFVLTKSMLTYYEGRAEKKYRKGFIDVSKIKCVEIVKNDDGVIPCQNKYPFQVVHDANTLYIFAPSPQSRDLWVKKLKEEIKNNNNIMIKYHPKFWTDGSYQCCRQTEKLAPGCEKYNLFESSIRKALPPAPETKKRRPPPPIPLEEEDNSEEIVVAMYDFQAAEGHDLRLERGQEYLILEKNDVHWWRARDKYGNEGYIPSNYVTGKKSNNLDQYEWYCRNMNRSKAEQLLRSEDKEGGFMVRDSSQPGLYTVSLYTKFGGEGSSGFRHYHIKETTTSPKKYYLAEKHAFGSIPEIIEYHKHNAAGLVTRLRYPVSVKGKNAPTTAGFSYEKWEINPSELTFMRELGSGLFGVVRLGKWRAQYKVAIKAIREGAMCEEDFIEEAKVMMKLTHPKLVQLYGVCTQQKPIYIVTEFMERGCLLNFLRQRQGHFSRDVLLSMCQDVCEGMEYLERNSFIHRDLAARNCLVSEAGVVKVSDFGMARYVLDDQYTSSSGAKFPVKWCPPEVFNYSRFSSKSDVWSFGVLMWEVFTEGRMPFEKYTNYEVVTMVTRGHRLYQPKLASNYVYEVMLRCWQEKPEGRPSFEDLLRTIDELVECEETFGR
UniProt P29597: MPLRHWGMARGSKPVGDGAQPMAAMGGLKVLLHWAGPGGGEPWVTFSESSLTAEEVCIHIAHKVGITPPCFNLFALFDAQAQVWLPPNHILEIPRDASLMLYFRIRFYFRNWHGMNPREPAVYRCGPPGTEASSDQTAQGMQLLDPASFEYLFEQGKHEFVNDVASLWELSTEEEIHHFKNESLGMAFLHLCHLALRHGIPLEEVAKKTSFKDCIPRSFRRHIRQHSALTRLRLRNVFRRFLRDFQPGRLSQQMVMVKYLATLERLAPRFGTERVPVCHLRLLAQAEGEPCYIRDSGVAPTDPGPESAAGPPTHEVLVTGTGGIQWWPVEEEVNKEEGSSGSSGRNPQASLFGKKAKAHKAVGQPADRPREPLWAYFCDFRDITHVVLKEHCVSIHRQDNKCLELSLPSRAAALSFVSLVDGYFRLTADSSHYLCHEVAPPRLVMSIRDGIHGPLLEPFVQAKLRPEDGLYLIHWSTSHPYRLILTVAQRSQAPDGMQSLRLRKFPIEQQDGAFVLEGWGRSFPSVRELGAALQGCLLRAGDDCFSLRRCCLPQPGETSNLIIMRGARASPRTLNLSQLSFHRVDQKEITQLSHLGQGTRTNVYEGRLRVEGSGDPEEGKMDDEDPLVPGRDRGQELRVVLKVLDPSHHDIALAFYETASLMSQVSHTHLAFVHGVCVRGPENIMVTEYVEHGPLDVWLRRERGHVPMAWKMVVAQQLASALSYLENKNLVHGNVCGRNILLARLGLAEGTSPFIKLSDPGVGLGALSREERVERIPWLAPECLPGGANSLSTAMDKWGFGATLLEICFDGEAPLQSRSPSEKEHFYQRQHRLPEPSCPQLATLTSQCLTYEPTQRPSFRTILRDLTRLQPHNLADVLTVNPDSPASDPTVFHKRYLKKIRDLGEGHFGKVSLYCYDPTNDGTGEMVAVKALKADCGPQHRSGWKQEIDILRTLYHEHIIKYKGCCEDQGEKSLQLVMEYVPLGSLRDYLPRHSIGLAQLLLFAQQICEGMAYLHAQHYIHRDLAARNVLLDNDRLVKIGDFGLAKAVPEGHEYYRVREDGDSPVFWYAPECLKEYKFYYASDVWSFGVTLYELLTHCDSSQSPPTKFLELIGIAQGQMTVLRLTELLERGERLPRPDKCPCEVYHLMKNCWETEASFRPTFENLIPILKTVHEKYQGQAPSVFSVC
UniProt Q6PHR2: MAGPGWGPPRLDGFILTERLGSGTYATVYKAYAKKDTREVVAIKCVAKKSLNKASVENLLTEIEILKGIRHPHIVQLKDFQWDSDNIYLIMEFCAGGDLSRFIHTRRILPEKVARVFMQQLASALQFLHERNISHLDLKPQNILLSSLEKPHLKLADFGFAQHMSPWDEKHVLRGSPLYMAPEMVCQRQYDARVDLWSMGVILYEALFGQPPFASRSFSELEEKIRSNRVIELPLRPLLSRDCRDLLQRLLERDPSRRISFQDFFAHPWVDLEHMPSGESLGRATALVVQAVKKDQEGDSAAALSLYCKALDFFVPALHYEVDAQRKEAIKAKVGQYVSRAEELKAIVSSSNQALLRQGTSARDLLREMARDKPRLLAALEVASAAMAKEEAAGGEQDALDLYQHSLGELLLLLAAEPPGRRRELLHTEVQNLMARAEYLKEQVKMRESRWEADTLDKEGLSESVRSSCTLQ
UniProt P00519, whole entry: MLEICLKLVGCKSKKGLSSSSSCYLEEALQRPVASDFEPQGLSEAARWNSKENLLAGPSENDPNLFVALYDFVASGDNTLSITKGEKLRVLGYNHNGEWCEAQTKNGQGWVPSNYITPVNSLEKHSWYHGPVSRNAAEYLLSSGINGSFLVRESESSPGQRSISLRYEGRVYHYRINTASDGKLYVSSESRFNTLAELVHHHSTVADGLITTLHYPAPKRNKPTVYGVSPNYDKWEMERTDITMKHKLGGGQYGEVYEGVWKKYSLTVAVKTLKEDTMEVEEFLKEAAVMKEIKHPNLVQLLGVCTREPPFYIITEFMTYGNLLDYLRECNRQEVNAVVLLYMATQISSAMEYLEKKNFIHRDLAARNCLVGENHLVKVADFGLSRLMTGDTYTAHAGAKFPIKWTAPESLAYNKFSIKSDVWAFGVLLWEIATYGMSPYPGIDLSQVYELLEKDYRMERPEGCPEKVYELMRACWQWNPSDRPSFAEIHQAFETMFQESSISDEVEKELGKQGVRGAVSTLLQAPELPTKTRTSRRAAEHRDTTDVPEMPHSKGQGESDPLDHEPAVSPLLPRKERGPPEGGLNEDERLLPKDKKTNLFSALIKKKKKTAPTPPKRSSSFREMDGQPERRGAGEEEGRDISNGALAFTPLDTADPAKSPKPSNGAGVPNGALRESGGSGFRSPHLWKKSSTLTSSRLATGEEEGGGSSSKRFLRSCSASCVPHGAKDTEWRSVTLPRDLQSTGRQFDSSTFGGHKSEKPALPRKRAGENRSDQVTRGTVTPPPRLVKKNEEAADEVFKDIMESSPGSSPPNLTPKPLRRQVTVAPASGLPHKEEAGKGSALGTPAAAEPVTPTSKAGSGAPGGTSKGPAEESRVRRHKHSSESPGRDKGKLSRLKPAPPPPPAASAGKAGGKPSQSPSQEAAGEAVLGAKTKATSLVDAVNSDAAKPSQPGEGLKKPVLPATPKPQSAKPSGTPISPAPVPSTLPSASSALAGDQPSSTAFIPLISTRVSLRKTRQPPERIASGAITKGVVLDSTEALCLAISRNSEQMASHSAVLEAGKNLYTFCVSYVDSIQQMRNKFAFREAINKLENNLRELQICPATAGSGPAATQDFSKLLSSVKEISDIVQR
UniProt P31749: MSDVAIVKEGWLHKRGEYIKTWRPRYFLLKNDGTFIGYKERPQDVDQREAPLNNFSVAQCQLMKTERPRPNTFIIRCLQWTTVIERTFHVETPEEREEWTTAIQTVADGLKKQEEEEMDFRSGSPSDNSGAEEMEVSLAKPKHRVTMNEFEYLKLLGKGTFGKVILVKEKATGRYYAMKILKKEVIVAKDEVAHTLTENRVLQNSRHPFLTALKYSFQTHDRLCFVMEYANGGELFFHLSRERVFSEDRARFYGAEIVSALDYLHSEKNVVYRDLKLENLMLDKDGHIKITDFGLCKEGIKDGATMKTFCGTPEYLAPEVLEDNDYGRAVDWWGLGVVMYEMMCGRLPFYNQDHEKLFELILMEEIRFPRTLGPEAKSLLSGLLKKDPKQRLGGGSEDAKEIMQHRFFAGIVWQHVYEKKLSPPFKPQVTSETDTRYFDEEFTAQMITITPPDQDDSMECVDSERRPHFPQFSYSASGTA

Experiments:
Details in all cases: K562; 2-18 h
[1] = target: RET (UniProt P07949); experiment: kinase-Nluc reporter destabilization hit call (1 = scored as downregulated) (binary); higher = compound decreases kinase abundance
[2] = target: RET_M918T (clone: RET_mut) (UniProt P07949); experiment: as above
[3] = target: RIOK1 (UniProt Q9BRS2); experiment: as above
[4] = target: RIPK1 (UniProt Q13546); experiment: as above
[5] = target: RIPK2 (UniProt O43353); experiment: as above
[6] = target: ROR2 (UniProt Q01974); experiment: as above
[7] = target: RPS6KA1 (UniProt Q15418); experiment: as above
[8] = target: SPHK1 (UniProt Q9NYA1); experiment: as above
[9] = target: SRC (UniProt P12931); experiment: as above
[10] = target: STK24 (UniProt Q9Y6E0); experiment: as above
[11] = target: STK38 (UniProt Q15208); experiment: as above
[12] = target: SYK (UniProt P43405); experiment: as above
[13] = target: TEC (UniProt P42680); experiment: as above
[14] = target: TYK2 (UniProt P29597); experiment: as above
[15] = target: ULK3 (UniProt Q6PHR2); experiment: as above
[16] = target: YES1 (UniProt P07947); experiment: as above
[17] = target: ZAK (UniProt Q9NYL2); experiment: as above
[18] = target: ZAP70 (UniProt P43403); experiment: as above
[19] = target: ABL1 (UniProt P00519); experiment: number of time points (of 5) at which kinase-Nluc abundance scored as decreased, DMSO-normalised (count); higher = more persistent destabilization
[20] = target: AKT1 (UniProt P31749); experiment: as above

Structure (SMILES)	kinase-Nluc reporter destabilization hit call [1]	kinase-Nluc reporter destabilization hit call [2]	kinase-Nluc reporter destabilization hit call [3]	kinase-Nluc reporter destabilization hit call [4]	kinase-Nluc reporter destabilization hit call [5]	kinase-Nluc reporter destabilization hit call [6]	kinase-Nluc reporter destabilization hit call [7]	kinase-Nluc reporter destabilization hit call [8]	kinase-Nluc reporter destabilization hit call [9]	kinase-Nluc reporter destabilization hit call [10]	kinase-Nluc reporter destabilization hit call [11]	kinase-Nluc reporter destabilization hit call [12]	kinase-Nluc reporter destabilization hit call [13]	kinase-Nluc reporter destabilization hit call [14]	kinase-Nluc reporter destabilization hit call [15]	kinase-Nluc reporter destabilization hit call [16]	kinase-Nluc reporter destabilization hit call [17]	kinase-Nluc reporter destabilization hit call [18]	number of time points [19]	number of time points [20]
CC1=C(C(=O)Nc2ccc3[nH]ncc3c2)C(c2ccc(F)c(C(=O)NCc3ccccn3)c2)NC(=O)N1 (stereo not given) (10 µM)	inactive: 0	inactive: 0	inactive: 0	inactive: 0	inactive: 0	inactive: 0	inactive: 0	inactive: 0	inactive: 0	inactive: 0	inactive: 0	inactive: 0	inactive: 0	inactive: 0	inactive: 0	inactive: 0	inactive: 0	inactive: 0	0	0
O=c1sn(-c2cccc3ccccc23)c(=O)n1Cc1ccccc1 [Tideglusib] (10 µM)	inactive: 0	inactive: 0	inactive: 0	inactive: 0	inactive: 0	inactive: 0	inactive: 0	inactive: 0	inactive: 0	inactive: 0	inactive: 0	inactive: 0	inactive: 0	inactive: 0	inactive: 0	inactive: 0	inactive: 0	inactive: 0	0	0
CCCC[C@H](CO)Nc1nc(NC)ncc1OC [Interferon receptor inducer-1] (10 µM)	inactive: 0	inactive: 0	inactive: 0	inactive: 0	inactive: 0	inactive: 0	inactive: 0	inactive: 0	inactive: 0	inactive: 0	inactive: 0	inactive: 0	inactive: 0	inactive: 0	inactive: 0	inactive: 0	inactive: 0	inactive: 0	0	0
C=CC(=O)N1CCC[C@@H](n2c(=O)n(-c3ccc(Oc4ccccc4)cc3)c3c(N)nccc32)C1 [Tolebrutinib] (10 µM)	inactive: 0	inactive: 0	inactive: 0	inactive: 0	inactive: 0	inactive: 0	inactive: 0	inactive: 0	inactive: 0	inactive: 0	inactive: 0	inactive: 0	inactive: 0	inactive: 0	inactive: 0	inactive: 0	inactive: 0	inactive: 0	0	0
CNS(=O)(=O)C[C@H]1CC[C@H](N(C)c2[nH]cnc3nccc2-3)CC1 [Oclacitinib (maleate)] (10 µM)	inactive: 0	inactive: 0	inactive: 0	inactive: 0	inactive: 0	inactive: 0	inactive: 0	inactive: 0	inactive: 0	inactive: 0	inactive: 0	inactive: 0	inactive: 0	inactive: 0	inactive: 0	inactive: 0	inactive: 0	inactive: 0	0	0
CN1CCN(c2ccc(NC(=O)c3ccc(C#N)o3)c(N3CCCCC3)c2)CC1 (10 µM)	inactive: 0	inactive: 0	inactive: 0	inactive: 0	inactive: 0	inactive: 0	inactive: 0	inactive: 0	inactive: 0	inactive: 0	inactive: 0	inactive: 0	inactive: 0	inactive: 0	inactive: 0	inactive: 0	inactive: 0	inactive: 0	0	0
O=C(c1ccc(NS(=O)(=O)c2cccc3cccnc23)cc1)N1CCN(CC2CC2)CC1 [Mitapivat] (10 µM)	inactive: 0	inactive: 0	inactive: 0	inactive: 0	inactive: 0	inactive: 0	inactive: 0	inactive: 0	inactive: 0	inactive: 0	inactive: 0	inactive: 0	inactive: 0	inactive: 0	inactive: 0	inactive: 0	inactive: 0	inactive: 0	0	0
Cc1ccc(Nc2c(C(N)=O)cnc3cc(-c4ccncc4)ccc23)cc1C [cFMS Receptor Inhibitor II] (10 µM)	inactive: 0	inactive: 0	inactive: 0	inactive: 0	inactive: 0	inactive: 0	inactive: 0	inactive: 0	inactive: 0	inactive: 0	inactive: 0	inactive: 0	inactive: 0	inactive: 0	inactive: 0	inactive: 0	inactive: 0	inactive: 0	0	0
O=C(Nc1cc(Cl)cc(Cl)c1)Nc1cc(Cl)cc(Cl)c1 (10 µM)	inactive: 0	inactive: 0	inactive: 0	inactive: 0	inactive: 0	inactive: 0	inactive: 0	inactive: 0	inactive: 0	inactive: 0	inactive: 0	inactive: 0	inactive: 0	inactive: 0	inactive: 0	inactive: 0	inactive: 0	inactive: 0	0	0
CCn1c2ccccc2c2cc(Nc3ccnc(NCCCN4CCOCC4)n3)ccc21 (2.5 µM)	inactive: 0	inactive: 0	inactive: 0	inactive: 0	inactive: 0	inactive: 0	inactive: 0	inactive: 0	inactive: 0	inactive: 0	inactive: 0	inactive: 0	inactive: 0	inactive: 0	inactive: 0	inactive: 0	inactive: 0	inactive: 0	0	0
Cc1c(C(=O)Nc2ccc(Oc3ccnc4cc(OCC(C)(C)O)ccc34)c(F)c2)c(=O)n(-c2ccccc2)n1C [Ningetinib Tosylate] (10 µM)	inactive: 0	inactive: 0	inactive: 0	inactive: 0	inactive: 0	inactive: 0	inactive: 0	inactive: 0	inactive: 0	inactive: 0	inactive: 0	inactive: 0	inactive: 0	inactive: 0	inactive: 0	inactive: 0	inactive: 0	inactive: 0	2	0
N#Cc1cn([C@@H]2O[C@H](CO)[C@@H](O)[C@H]2O)c2nc[nH]c(=O)c12 [Jaspamycin] (10 µM)	inactive: 0	inactive: 0	inactive: 0	inactive: 0	inactive: 0	inactive: 0	inactive: 0	inactive: 0	inactive: 0	inactive: 0	inactive: 0	inactive: 0	inactive: 0	inactive: 0	inactive: 0	inactive: 0	inactive: 0	inactive: 0	0	0
CC(C)(C)S(=O)(=O)c1cc2c(Nc3ccc4scnc4c3)ccnc2cc1OCCOCCOCCOCCOCC(=O)Nc1cccc2c1CN(C1CCC(=O)NC1=O)C2=O (stereo not given) [PROTAC RIPK degrader-6] (10 µM)	inactive: 0	inactive: 0	inactive: 0	inactive: 0	active: 1	inactive: 0	inactive: 0	inactive: 0	inactive: 0	inactive: 0	inactive: 0	inactive: 0	inactive: 0	inactive: 0	inactive: 0	inactive: 0	inactive: 0	inactive: 0	4	0
C=CCN(/C=C1/C(=O)O[C@H](COC)[C@@]2(C)C1=C(O)C(=O)C1=C2[C@H](OC(C)=O)C[C@]2(C)C(=O)CC[C@@H]12)CC=C [Sonolisib] (2.5 µM)	inactive: 0	inactive: 0	inactive: 0	inactive: 0	inactive: 0	inactive: 0	inactive: 0	inactive: 0	inactive: 0	inactive: 0	inactive: 0	inactive: 0	inactive: 0	inactive: 0	inactive: 0	inactive: 0	inactive: 0	inactive: 0	2	0
CC(C)c1cnn2c(NCc3ccccc3)cc(NCCCCCCN)nc12 [BS-181 (hydrochloride)] (10 µM)	inactive: 0	inactive: 0	inactive: 0	inactive: 0	inactive: 0	inactive: 0	inactive: 0	inactive: 0	inactive: 0	inactive: 0	inactive: 0	inactive: 0	inactive: 0	inactive: 0	inactive: 0	inactive: 0	inactive: 0	inactive: 0	0	0
CCCCNc1ncc2c(-c3ccc(CN4CCN(C)CC4)cc3)cn([C@H]3CC[C@H](O)CC3)c2n1 [UNC2025 (hydrochloride)] (2.5 µM)	inactive: 0	inactive: 0	inactive: 0	inactive: 0	inactive: 0	inactive: 0	inactive: 0	inactive: 0	inactive: 0	inactive: 0	inactive: 0	inactive: 0	inactive: 0	inactive: 0	inactive: 0	inactive: 0	inactive: 0	inactive: 0	2	0
Cc1cc(Nc2ncc(Cl)c(Nc3ccccc3S(=O)(=O)C(C)C)n2)c(OC(C)C)cc1C1CCN(CC(=O)NCCNc2cccc3c2C(=O)N(C2CCC(=O)NC2=O)C3=O)CC1 (stereo not given) (10 µM)	inactive: 0	inactive: 0	inactive: 0	inactive: 0	inactive: 0	inactive: 0	inactive: 0	inactive: 0	inactive: 0	inactive: 0	inactive: 0	inactive: 0	inactive: 0	inactive: 0	inactive: 0	inactive: 0	inactive: 0	inactive: 0	0	0

Quoted from the listing:
Value of N#Cc1cn([C@@H]2O[C@H](CO)[C@@H](O)[C@H]2O)c2nc[nH]c(=O)c12 [Jaspamycin] (10 µM) under kinase-Nluc reporter destabilization hit call [10]: inactive: 0
Value of CNS(=O)(=O)C[C@H]1CC[C@H](N(C)c2[nH]cnc3nccc2-3)CC1 [Oclacitinib (maleate)] (10 µM) under kinase-Nluc reporter destabilization hit call [6]: inactive: 0
